# Results reported in US10160767B2 (Institute of Pharmacology and Toxicology Academy of …, priority 2014, dated 2018).
# System: multi-drug resistant tumor cell line MES-SA
# Assay: Inhibition of drug-resistant tumor cell line, Cell Titer-Glo cell viability; therapeutic index against MRC5 cells
# Assay type: cell-based, human
# Conditions: ratio of EC50 for MRC5 cell to EC50 for MES-SA cell
# Protocol: The activity of example compounds to multi-drug resistant tumor cell line MES-SA was evaluated.
# Experimental materials: DMEM high-glucose cell culture media (Hyclone Company), fetal calf serum (FBS) (Gibco Company), penicillin and streptomycin were purchased from North China Pharmaceutical Co., Ltd, phosphate buffer saline (PBS) was purchased from Gibco Company, Cell Titer-Glo® cell viability detection reagent was purchased from Promega Company, pancreatin and dimethylsulfoxide (DMSO) were products of Sigma Company. MES-SA cell line (human uterine sarcoma cell line) was purchased from ATCC. MRC5 cell (human embryonic lung fibroblast) was purchased from ATCC.
# The cells were inoculated on a 96-well plate with white wall and penetrative bottom (Costar) in amount of 5000 cells per well, cultured at condition of 37° C., 5% CO2 for 24 h. The compounds to be tested were dissolved with DMSO and diluted to 100 mM, to obtain mother liquids of the compounds.
# DMEM culture solution containing 2% FBS was used to diluted the compounds, in which concentration gradients were 3, and concentration range was 100 μM to 0.046 μM. The compounds in various dilution degrees were added to the cultured cells on the 96-well plate, 100 μl per well. Culture was performed at 37° C., CO2 for 72 h, supernatant was discarded, and cell viability detection test was performed.
# AfterCell Titer-Glo® reaction buffer solution was mixed with isometric substrate, the mixture was added to 96-well plate, 100 μl per well. Cell lysis was induced by horizontally shaking for 4 min. Reaction signal was stabilized by balancing at room temperature for 15 min. Chemiluminescence units in each well of the 96-well plate were detected by using chemiluminescence detector.
# Inhibition rates at different dilution degrees of each compound were calculated according to chemiluminescence value of each well, and Origin 8.0 software was used for S-type curve fitting of each compound, and for calculating EC50 value. The ratio of EC50 value of compound for MRC5 cell to EC50 value of compound for MES-SA cell was used as therapeutic index for the compound.
row,SMILES,Therapeutic index
1,"CO[C@H]1C[C@@H]2CC[C@@H](C)[C@@](O)(O2)C(=O)C(=O)N2CCCC[C@H]2C(=O)O[C@H]([C@H](C)C[C@@H]2CC[C@@H](OC(=O)C[n+]3cscc3C)[C@H](OC)C2)CC(=O)[C@H](C)/C=C(\C)[C@@H](OC(=O)C[n+]2cscc2C)[C@@H](OC)C(=O)[C@H](C)C[C@H](C)/C=C/C=C/C=C/1C.[Br-].[Br-] [Example 1, 31,42-O-carbonylmethyl-(4-methyl-thiazole bromide salt-3-yl)-rapamycin]",>259.8
2,"CO[C@H]1C[C@@H]2CC[C@@H](C)[C@@](O)(O2)C(=O)C(=O)N2CCCC[C@H]2C(=O)O[C@H]([C@H](C)C[C@@H]2CC[C@@H](OC(=O)C[n+]3cscc3C)[C@H](OC)C2)CC(=O)[C@H](C)/C=C(\C)[C@@H](O)[C@@H](OC)C(=O)[C@H](C)C[C@H](C)/C=C/C=C/C=C/1C.[Br-] [Example 2, 42-O-carbonylmethyl-(4-methyl-thiazole bromide salt-3-yl)-rapamycin]",>1811.9
3,"CO[C@H]1C[C@@H]2CC[C@@H](C)[C@@](O)(O2)C(=O)C(=O)N2CCCC[C@H]2C(=O)O[C@H]([C@H](C)C[C@@H]2CC[C@@H](O)[C@H](OC)C2)CC(=O)[C@H](C)/C=C(\C)[C@@H](OC(=O)C[n+]2cscc2C)[C@@H](OC)C(=O)[C@H](C)C[C@H](C)/C=C/C=C/C=C/1C.[Br-] [Example 3, 31-O-carbonylmethyl-(4-methyl-thiazole bromide salt-3-yl)-rapamycin]",>1501.1
4,"CO[C@H]1C[C@@H]2CC[C@@H](C)[C@@](O)(O2)C(=O)C(=O)N2CCCC[C@H]2C(=O)O[C@H]([C@H](C)C[C@@H]2CC[C@@H](OC(=O)C[n+]3csc(C)c3C)[C@H](OC)C2)CC(=O)[C@H](C)/C=C(\C)[C@@H](OC(=O)C[n+]2csc(C)c2C)[C@@H](OC)C(=O)[C@H](C)C[C@H](C)/C=C/C=C/C=C/1C.[Br-].[Br-] [Example 4, 31,42-O-carbonylmethyl-(4,5-dimethyl-thiazole bromide salt-3-yl)-rapamycin]",>787.2
5,"CO[C@H]1C[C@@H]2CC[C@@H](C)[C@@](O)(O2)C(=O)C(=O)N2CCCC[C@H]2C(=O)O[C@H]([C@H](C)C[C@@H]2CC[C@@H](OC(=O)C[n+]3csc(C)c3C)[C@H](OC)C2)CC(=O)[C@H](C)/C=C(\C)[C@@H](O)[C@@H](OC)C(=O)[C@H](C)C[C@H](C)/C=C/C=C/C=C/1C.[Br-] [Example 5, 42-O-carbonylmethyl-(4,5-dimethyl-thiazole bromide salt-3-yl)-rapamycin]",>1371.1
6,"CO[C@H]1C[C@@H]2CC[C@@H](C)[C@@](O)(O2)C(=O)C(=O)N2CCCC[C@H]2C(=O)O[C@H]([C@H](C)C[C@@H]2CC[C@@H](O)[C@H](OC)C2)CC(=O)[C@H](C)/C=C(\C)[C@@H](OC(=O)C[n+]2csc(C)c2C)[C@@H](OC)C(=O)[C@H](C)C[C@H](C)/C=C/C=C/C=C/1C.[Br-] [Example 6, 31-O-carbonylmethyl-(4,5-dimethyl-thiazole bromide salt-3-yl)-rapamycin]",>455.1
7,"CO[C@H]1C[C@@H]2CC[C@@H](C)[C@@](O)(O2)C(=O)C(=O)N2CCCC[C@H]2C(=O)O[C@H]([C@H](C)C[C@@H]2CC[C@@H](OC(=O)C[n+]3ccccc3)[C@H](OC)C2)CC(=O)[C@H](C)/C=C(\C)[C@@H](OC(=O)C[n+]2ccccc2)[C@@H](OC)C(=O)[C@H](C)C[C@H](C)/C=C/C=C/C=C/1C.[Br-].[Br-] [Example 7, 31,42-O-carbonylmethyl-(pyridine bromide salt-1-yl)-rapamycin]",>442.7
8,"CO[C@H]1C[C@@H]2CC[C@@H](C)[C@@](O)(O2)C(=O)C(=O)N2CCCC[C@H]2C(=O)O[C@H]([C@H](C)C[C@@H]2CC[C@@H](OC(=O)C[n+]3cccc(O)c3)[C@H](OC)C2)CC(=O)[C@H](C)/C=C(\C)[C@@H](OC(=O)C[n+]2cccc(O)c2)[C@@H](OC)C(=O)[C@H](C)C[C@H](C)/C=C/C=C/C=C/1C.[Br-].[Br-] [Example 8, 31,42-O-carbonylmethyl-(3-hydroxy-pyridine bromide salt-1-yl)-rapamycin]",>1441.6
9,"CO[C@H]1C[C@@H]2CC[C@@H](C)[C@@](O)(O2)C(=O)C(=O)N2CCCC[C@H]2C(=O)O[C@H]([C@H](C)C[C@@H]2CC[C@@H](OC(=O)C[n+]3cccc(C)c3)[C@H](OC)C2)CC(=O)[C@H](C)/C=C(\C)[C@@H](OC(=O)C[n+]2cccc(C)c2)[C@@H](OC)C(=O)[C@H](C)C[C@H](C)/C=C/C=C/C=C/1C.[Br-].[Br-] [Example 9, 31,42-O-carbonylmethyl-(3-methyl-pyridine bromide salt-1-yl)-rapamycin]",12.1
10,"CO[C@H]1C[C@@H]2CC[C@@H](C)[C@@](O)(O2)C(=O)C(=O)N2CCCC[C@H]2C(=O)O[C@H]([C@H](C)C[C@@H]2CC[C@@H](OC(=O)C[n+]3ccccc3)[C@H](OC)C2)CC(=O)[C@H](C)/C=C(\C)[C@@H](O)[C@@H](OC)C(=O)[C@H](C)C[C@H](C)/C=C/C=C/C=C/1C.[Br-] [Example 10, 42-O-carbonylmethyl-(pyridine bromide salt-1-yl)-rapamycin]",3.4
11,"CO[C@H]1C[C@@H]2CC[C@@H](C)[C@@](O)(O2)C(=O)C(=O)N2CCCC[C@H]2C(=O)O[C@H]([C@H](C)C[C@@H]2CC[C@@H](OC(=O)C[n+]3cccc(C)c3)[C@H](OC)C2)CC(=O)[C@H](C)/C=C(\C)[C@@H](O)[C@@H](OC)C(=O)[C@H](C)C[C@H](C)/C=C/C=C/C=C/1C.[Br-] [Example 11, 42-O-carbonylmethyl-(3-methyl-pyridine bromide salt-1-yl)-rapamycin]",>1888.7
12,"CO[C@H]1C[C@@H]2CC[C@@H](C)[C@@](O)(O2)C(=O)C(=O)N2CCCC[C@H]2C(=O)O[C@H]([C@H](C)C[C@@H]2CC[C@@H](OC(=O)C[n+]3cccc(O)c3)[C@H](OC)C2)CC(=O)[C@H](C)/C=C(\C)[C@@H](O)[C@@H](OC)C(=O)[C@H](C)C[C@H](C)/C=C/C=C/C=C/1C.[Br-] [Example 12, 42-O-carbonylmethyl-(3-hydroxy-pyridine bromide salt-1-yl)-rapamycin]",>146.5
13,"CO[C@H]1C[C@@H]2CC[C@@H](C)[C@@](O)(O2)C(=O)C(=O)N2CCCC[C@H]2C(=O)O[C@H]([C@H](C)C[C@@H]2CC[C@@H](OC(=O)C[n+]3ccc(C)cc3)[C@H](OC)C2)CC(=O)[C@H](C)/C=C(\C)[C@@H](O)[C@@H](OC)C(=O)[C@H](C)C[C@H](C)/C=C/C=C/C=C/1C.[Br-] [Example 13, 42-O-carbonylmethyl-(4-methyl-pyridine bromide salt-1-yl)-rapamycin]",>1559.0
14,"CO[C@H]1C[C@@H]2CC[C@@H](C)[C@@](O)(O2)C(=O)C(=O)N2CCCC[C@H]2C(=O)O[C@H]([C@H](C)C[C@@H]2CC[C@@H](OC(=O)C[n+]3ccc(C)cc3)[C@H](OC)C2)CC(=O)[C@H](C)/C=C(\C)[C@@H](OC(=O)C[n+]2ccc(C)cc2)[C@@H](OC)C(=O)[C@H](C)C[C@H](C)/C=C/C=C/C=C/1C.[Br-].[Br-] [Example 14, 31,42-O-carbonylmethyl-(4-methyl-pyridine bromide salt-1-yl)-rapamycin]",>2136.8
15,"CO[C@H]1C[C@@H]2CC[C@@H](C)[C@@](O)(O2)C(=O)C(=O)N2CCCC[C@H]2C(=O)O[C@H]([C@H](C)C[C@@H]2CC[C@@H](O)[C@H](OC)C2)CC(=O)[C@H](C)/C=C(\C)[C@@H](OC(=O)C[n+]2cccc(C)c2)[C@@H](OC)C(=O)[C@H](C)C[C@H](C)/C=C/C=C/C=C/1C.[Br-] [Example 15, 31-O-carbonylmethyl-(3-methyl-pyridine bromide salt-1-yl)-rapamycin]",>331.5
16,"CO[C@H]1C[C@@H]2CC[C@@H](C)[C@@](O)(O2)C(=O)C(=O)N2CCCC[C@H]2C(=O)O[C@H]([C@H](C)C[C@@H]2CC[C@@H](O)[C@H](OC)C2)CC(=O)[C@H](C)/C=C(\C)[C@@H](OC(=O)C[n+]2ccccc2)[C@@H](OC)C(=O)[C@H](C)C[C@H](C)/C=C/C=C/C=C/1C.[Br-] [Example 16, 31-O-carbonylmethyl-(pyridine bromide salt-1-yl)-rapamycin]",>364.8
17,"CO[C@H]1C[C@@H]2CC[C@@H](C)[C@@](O)(O2)C(=O)C(=O)N2CCCC[C@H]2C(=O)O[C@H]([C@H](C)C[C@@H]2CC[C@@H](O)[C@H](OC)C2)CC(=O)[C@H](C)/C=C(\C)[C@@H](OC(=O)C[n+]2ccc(C)cc2)[C@@H](OC)C(=O)[C@H](C)C[C@H](C)/C=C/C=C/C=C/1C.[Br-] [Example 17, 31-O-carbonylmethyl-(4-methyl-pyridine bromide salt-1-yl)-rapamycin]",>317.7
